Laboratory results taken from patent US20080267909A1, “PHAGOCYTE ENHANCEMENT THERAPY FOR ATHEROSCLEROSIS” (THE TRUSTEES OF COLUMBIA UNIVERSITY IN THE CITY OF NEW YORK, priority 2005, published 2008).
For at least one compound, name, drawing or mass did not settle the structure.

How the values were obtained:
apoptotic J774 cells = assay: Engulfment of uv-irradiated apoptotic J774 cells by peritoneal macrophages (Example 2); format: cell-based; conditions: apoptotic J774 cells overlaid 1:1 for 35 minutes; ROSI 10 μM for 18 hours; FIG. 3A and 3B
[1] = test system: ingesting phagocytes (IPs) and non-IPs; assay: FC-induced apoptosis (annexin V) in IPs and non-IPs during 20 hour post-ingestion FC-loading; format: cell-based, mouse; conditions: 10 μM inhibitor, 20 hours FC-loading; vs no inhibitor
Method: FIG. 10A is a bar graph depicting the results of experiments in which the protocol described in FIG. 9C was used and the percent apoptosis was determined in non-IPs (cross-hatched bars) and IPs (black bars) that were incubated for 20 hours in FC-loading medium either in the absence or presence of 10 μM of the IKK inhibitor PS1145, 10 μM of the PI-3 kinase/Akt inhibitor […], or both compounds.
FC-AMs were removed from the culture dish and cultured for 30 minutes with a monolayer of fresh macrophages (“phagocytes”) at an approximate ratio of 1:5 (FC-AMs:phagocytes). In certain experiments, the FC-AMs were labeled with Alexa Fluor 488 annexin V or Calcium Green™-AM for 20 minutes prior to addition to the phagocytes in order to mark those phagocytes that had ingested the FC-AMs (“ingesting phagocytes,” or “IPs”). The non-ingested apoptotic cells were then removed by thorough rinsing as described in Li et al. (2006, J. Biol. Chem. 281:6707-6717), and the phagocytes were incubated in fresh medium for the indicated times. […] To assay apoptosis in the phagocytes, the cells were stained with Alexa Fluor 594 annexin V and viewed by fluorescence microscopy. For quantification, 4-6 representative fields of cells at 40× magnification were counted to determine the number of apoptotic phagocytes and total phagocytes for each condition. […]

[2] = test system: ingesting phagocytes (IPs) and non-IPs; assay: UV-induced apoptosis (annexin V) in IPs and non-IPs; format: cell-based, mouse; conditions: 10 μM inhibitor, 8 hour incubation after UV irradiation, FIG. 12

Row | Compound | percent engulfment (phagocytosis) (apoptotic J774 cells) | FC-induced apoptosis in IPs (in words) [1] | FC-induced apoptosis in non-IPs (in words) [1] | UV-induced apoptosis in non-IPs / compared to non-IPs [2] | UV-induced apoptosis in IPs ([2]; vs no-inhibitor control)
1 | CN(CCOc1ccc(CC2SC(=O)NC2=O)cc1)c1ccccn1 (centres unmarked) [TZD, rosiglitazone] | enhance phagocytosis |  |  |  | 
2 | O=c1cc(N2CCOCC2)oc2c(-c3ccccc3)cccc12 [LY294002] |  | markedly increased | only slightly increased | not in non-IPs | marked increase
